Measurements from PubChem BioAssay AID1508635 (National Center for Advancing Translational Sciences (NCATS), 2021).
This list was built around the results that the source calls inconclusive (neither active nor inactive); the mix of calls is not that of the screen. Potencies beside an inconclusive call are fits to weak or partial responses and may not hold up. Activity calls are given as the source filed them. Calls come from the whole dose curve; as a rule, active = well fitted inhibition curve with a large enough effect; inconclusive = small, poorly fitted or top-dose-only effect; inactive = no such curve, though single readings can be large or run the other way.

system: zebrafish Abcb4 (ABCB1 homolog); assay: qHTS for characterization and localization of zebrafish homologs of the human ABCB1 multidrug transporter: ABCB4 transfected cells; settings: CellTiter-Glo viability luminescence, 72 h; series mostly up to 46.1 µM; activity change, negative = inhibition: at the top concentration
Source text: The zebrafish has emerged as a potential model to study the blood-brain barrier (BBB) given its similarities with mammalian systems. However, little information has been available with regard to homologous ATP-binding cassette transporters expressed at the zebrafish BBB. Two transporters that are highly expressed at the human BBB are P-glycoprotein (P-gp, encoded by the ABCB1 gene) and ABCG2 (encoded by the ABCG2 gene). In this study, we focus on characterization of P-gp homologs in the zebrafish, which has two genes that are homologous to human ABCB1 - abcb4 and abcb5. We generated stably-transfected cell lines to determine their substrate specificities. […] Zebrafish abcb4 also colocalized with claudin 5 expression in brain endothelial cells.
A high-throughput screen was performed as previously described on empty vector transfected cells, P-gp-overexpressing MDR-19 cells and cells transfected with full-length zebrafish abcb4 (ZF Abcb4) or abcb5 (ZF Abcb5). Briefly, cells were plated into 1536-well plates at a density of 500 cells/well in 5 uL media. P-gp substrate compounds (approximately 90) selected from our previous study were then added at varying concentrations using a 1536-head pin tool (Kalypsis, San Diego, CA) and plates were incubated at 37C in 5% CO2 for 72 h. CellTiter-Glo reagent (Promega) was dispensed into the wells, incubated for 5 min and luminescence was read on a ViewLux instrument (Perkin-Elmer).
Cytotoxic compounds were defined as those that yielded a curve class of -1.1, -1.2, -2.1, -2.2, -2.3, or -2.4, a maximum response of >50% and an AC50 of < 10 uM. All compounds from screening analysis were tested in Vector (empty vector control), MDR-19 (P-gp overexpressing), zebrafish abcb4 (ZF Abcb4) and abcb5 (ZF Abcb5) expression cell lines.
1. Tobie D Lee, Olivia W Lee, Kyle R Brimacombe, Lu Chen, Rajarshi Guha, Sabrina Lusvarghi, Bethilehem G Tebase, Carleen Klumpp-Thomas, Robert W Robey, Suresh V Ambudkar, Min Shen, Michael M Gottesman, Matthew D Hall. A High-Throughput Screen of a Library of Therapeutics Identifies Cytotoxic Substrates of P-glycoprotein. Mol Pharmacol. 2019, Nov;96(5):629-640.

| Structure (SMILES) | Potency | activity change, negative = inhibition |
| --- | --- | --- |
| CC[C@@]1(O)CC2CN(CCc3c([nH]c4ccccc34)[C@](C(=O)OC)(c3cc4c(cc3OC)N(C)C3[C@@](O)(C(N)=O)[C@H](O)[C@]5(CC)C=CCN6CC[C@@]43[C@@H]65)C2)C1 (some centres undefined) | inconclusive: 5.9 µM [inhibitor, full curve] |  |
| CC[n+]1c(-c2ccccc2)c2cc(N)ccc2c2ccc(N)cc21 |  | inactive: -14% |
| CC[C@@H]1C(=O)N(C)c2cnc(Nc3ccc(C(=O)NC4CCN(C)CC4)cc3OC)nc2N1C1CCCC1 | inconclusive: 11.8 µM [inhibitor, partial curve] |  |
| COc1cc(NCc2ccc3nc(N)nc(N)c3c2C)cc(OC)c1OC | inconclusive: 3.72 µM [inhibitor, full curve] |  |
| COc1cc(C(=O)NC2CCN(C)CC2)ccc1Nc1ncc2c(n1)N(C1CCCC1)CC(F)(F)C(=O)N2C | inconclusive: 4.18 µM [inhibitor, partial curve] |  |
| CC(=O)OC12COC1CC(O)C1(C)C(=O)C(O)C3=C(C)C(OC(=O)C(O)C(NC(=O)OC(C)(C)C)c4ccccc4)CC(O)(C(OC(=O)c4ccccc4)C21)C3(C)C (centres undefined) | inconclusive: 0.743 µM [inhibitor, full curve] |  |
| CCC(C)n1ncn(-c2ccc(N3CCN(c4ccc(OCC5COC(Cn6cncn6)(c6ccc(Cl)cc6Cl)O5)cc4)CC3)cc2)c1=O (centres undefined) | inconclusive: 7.43 µM [inhibitor, full curve] |  |
| O=C(Nc1cn[nH]c1-c1nc2ccc(CN3CCOCC3)cc2[nH]1)NC1CC1 | inconclusive: 18.7 µM [inhibitor, partial curve] |  |
| C[C@@H](Oc1cc(-n2cnc3ccc(CN4CCN(C)CC4)cc32)sc1C(N)=O)c1ccccc1C(F)(F)F | inconclusive: 3.72 µM [inhibitor, partial curve] |  |
